Our source for the binding values is paper PMC12828796.

Amino acid sequences for entries named in this document (tags omitted). A change or cut given only in a name is not applied to a line headed by its entry.
UniProt O15205: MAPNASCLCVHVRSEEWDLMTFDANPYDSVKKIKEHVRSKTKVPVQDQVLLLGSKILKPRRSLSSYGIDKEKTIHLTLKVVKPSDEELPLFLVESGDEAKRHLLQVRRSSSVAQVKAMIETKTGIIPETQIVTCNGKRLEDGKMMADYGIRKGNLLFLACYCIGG
UniProt P08254: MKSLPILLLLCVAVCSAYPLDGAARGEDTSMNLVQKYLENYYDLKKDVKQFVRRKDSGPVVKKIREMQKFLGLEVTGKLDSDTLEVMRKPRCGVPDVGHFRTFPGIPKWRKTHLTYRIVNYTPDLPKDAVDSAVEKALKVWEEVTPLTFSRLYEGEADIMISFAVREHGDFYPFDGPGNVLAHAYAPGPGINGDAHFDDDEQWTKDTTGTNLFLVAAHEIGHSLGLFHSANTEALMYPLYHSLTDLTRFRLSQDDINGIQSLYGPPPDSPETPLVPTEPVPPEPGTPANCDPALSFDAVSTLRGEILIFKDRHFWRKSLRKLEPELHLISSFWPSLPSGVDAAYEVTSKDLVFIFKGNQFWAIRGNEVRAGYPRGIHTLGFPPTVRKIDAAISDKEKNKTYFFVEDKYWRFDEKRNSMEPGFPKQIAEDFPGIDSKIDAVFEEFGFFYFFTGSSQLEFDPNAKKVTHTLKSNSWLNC

The target of this experiment is ubiquitin D (UBD), Flag-tagged (UniProt O15205). The experiment in a line: affinity purification with mass spectrometry; Flag-tagged UBD expressed in cells for 48 h; lysate supernatant incubated with Flag-agarose beads overnight at 4 °C, rinsed 3 times with 1× lysis buffer; SDS-PAGE, silver staining, LC-MS/MS.

No constants are given. Whether binding was seen depends on the method and setting. Binding seen in cells or lysates may run through a third protein. Here binding means that the protein was enriched with, or labelled near, the bait; the list need not be complete.

On to “matrix metalloproteinase 3 (MMP3) (from UniProt P08254)”, for which the binding entry is “binds”.
